In US10806694B2, “Nanoparticles for photodynamic therapy, X-ray induced photodynamic therapy, radiotherapy, radiodynamic therapy, chemotherapy, immunotherapy, and any combination thereof” (The University of Chicago, priority 2014, dated 2020):
At least one compound was matched to its structure with a doubt left.

Experiment: Singlet oxygen generation with Singlet Oxygen Sensor Green (SOSG) under LED irradiation
Assay type: physicochemical
Conditions: 0.1 W/cm^2; 650 nm LED for DBC-UiO and H2DBC, 640 nm for the others
Experimental: A light-emitting diode (LED) array with peak emission at 640 nm was used as the light source of singlet oxygen generation. The irradiance of LED is 100 mW/cm^2. Singlet oxygen sensor green (SOSG) reagent (Life Technologies, Carlsbad, Calif., United States of America) was employed for the detection of singlet oxygen. H2DBP and DBP-UiO samples were prepared in 5 μM solutions/suspensions in HBSS buffer (for DBP-UiO samples, the concentration was calculated as ligand equivalents). To 2 mL each of these solutions/suspensions, SOSG stock solution (5 μL at 5 mM) was added (final concentration=12.5 μM) before fluorescence measurement.
For a typical measurement, fluorescence intensity was acquired on a spectrofluorophotometer (RF-5301PC, Shimadzu Corporation, Kyoto, Japan) with excitation at 504 nm and emission at 525 nm (slit width 3 nm/5 nm for ex/em). Fluorescence was measured after irradiation by LED for 0 (as background), 10 s, 20 s, 30 s, 1 min, 1.5 min, 2 min, 2.5 min, 3 min, 3.5 min, 4 min, 4.5 min, 5 min, 6 min and 7 min.
Singlet oxygen generation efficiencies of H2DBP and DBP-UiO were determined using Singlet Oxygen Sensor Green (SOSG, Life Technologies). After exposure to a LED light source (peak emission at 640 nm, energy irradiance of 100 mW/cm^2), the […] reagent SOSG reacted with ^1O2 to generate green fluorescence which was quantified with a fluorimeter. […]

SMILES: C=CC1=C(C)c2cc3[nH]c(cc4nc(cc5[nH]c(cc1n2)c(C)c5CCC(=O)O)C(CCC(=O)O)=C4C)c(C)c3C=C [PpIX, protoporphyrin IX, reference compound]
- k (fitting parameter for 1O2 generation curve): 0.19 min⁻¹
